The other results are listed elsewhere or left out.
Key:
Test in all cases: glycan array binding signal (z-score within array); higher = stronger binding
Settings in all cases: glycan notation: IUPAC condensed, linker removed
[1] = target: Gal(b1-4)GlcNAc(a1-6)Gal(b1-4)GlcNAc
Outline: (§1)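 The binding signal is a Z-score computed within each array and averaged over linkers. Arrays of the same protein sequence at different concentrations or buffers were also averaged together. Data originate from 3228 arrays in the Consortium for Functional Glycomics database, kept only where the protein sequence was available.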

[2] = target: Gal(b1-4)GlcNAc(b1-2)Man(a1-3)Man(b1-4)GlcNAc(b1-4)GlcNAc
Outline: as §1

[3] = target: Gal(b1-4)GlcNAc(b1-2)Man(a1-3)[Gal(b1-4)GlcNAc(b1-2)Man(a1-6)]Man(b1-4)GlcNAc(b1-4)GlcNAc
Outline: as §1

[4] = target: Gal(b1-4)GlcNAc(b1-2)Man(a1-3)[Gal(b1-4)GlcNAc(b1-2)Man(a1-6)]Man(b1-4)GlcNAc(b1-4)[Fuc(a1-6)]GlcNAc
Outline: as §1

[5] = target: Gal(b1-4)GlcNAc(b1-2)Man(a1-3)[GlcNAc(b1-2)Man(a1-6)]Man(b1-4)GlcNAc(b1-4)GlcNAc
Outline: as §1

[6] = target: Gal(b1-4)GlcNAc(b1-2)Man(a1-3)[Man(a1-6)]Man(b1-4)GlcNAc(b1-4)GlcNAc
Outline: as §1

[7] = target: Gal(b1-4)GlcNAc(b1-2)Man(a1-6)Man(b1-4)GlcNAc(b1-4)GlcNAc
Outline: as §1

[8] = target: Gal(b1-4)GlcNAc(b1-2)Man(a1-6)[GlcNAc(b1-2)Man(a1-3)]Man(b1-4)GlcNAc(b1-4)GlcNAc
Outline: as §1

[9] = target: Gal(b1-4)GlcNAc(b1-2)Man(a1-6)[Man(a1-3)]Man(b1-4)GlcNAc(b1-4)GlcNAc
Outline: as §1

[10] = target: Gal(b1-4)GlcNAc(b1-2)[Gal(b1-4)GlcNAc(b1-4)]Man(a1-3)[Gal(b1-4)GlcNAc(b1-2)Man(a1-6)]Man(b1-4)GlcNAc(b1-4)GlcNAc
Outline: as §1

[11] = target: Gal(b1-4)GlcNAc(b1-2)[Gal(b1-4)GlcNAc(b1-4)]Man(a1-3)[Gal(b1-4)GlcNAc(b1-2)[Gal(b1-4)GlcNAc(b1-6)]Man(a1-6)]Man(b1-4)GlcNAc(b1-4)GlcNAc
Outline: as §1

[12] = target: Gal(b1-4)GlcNAc(b1-3)Gal(b1-3)GlcNAc
Outline: as §1

[13] = target: Gal(b1-4)GlcNAc(b1-3)Gal(b1-4)Glc
Outline: as §1

[14] = target: Gal(b1-4)GlcNAc(b1-3)Gal(b1-4)GlcNAc
Outline: as §1

[15] = target: Gal(b1-4)GlcNAc(b1-3)Gal(b1-4)GlcNAc(b1-3)Gal(b1-4)GlcNAc
Outline: as §1

[16] = target: Gal(b1-4)GlcNAc(b1-3)Gal(b1-4)[Fuc(a1-3)]GlcNAc(b1-3)Gal(b1-4)[Fuc(a1-3)]GlcNAc
Outline: as §1

[17] = target: Gal(b1-4)GlcNAc(b1-3)GalNAc
Outline: as §1

[18] = target: Gal(b1-4)GlcNAc(b1-3)[Gal(b1-4)GlcNAc(b1-6)]Gal(b1-4)GlcNAc
Outline: as §1

[19] = target: Gal(b1-4)GlcNAc(b1-3)[Gal(b1-4)GlcNAc(b1-6)]GalNAc
Outline: as §1

[20] = target: Gal(b1-4)GlcNAc(b1-3)[GlcNAc(b1-6)]Gal(b1-4)GlcNAc
Outline: as §1

[21] = target: Gal(b1-4)GlcNAc(b1-6)Gal(b1-4)GlcNAc
Outline: as §1

[22] = target: Gal(b1-4)GlcNAc(b1-6)GalNAc
Outline: as §1

[23] = target: Gal(b1-4)GlcNAc(b1-6)[Gal(b1-3)]GalNAc
Outline: as §1

Gal3S(b1-3)GalNAc = target: Gal3S(b1-3)GalNAc
Outline: as §1

Gal3S(b1-3)GlcNAc = target: Gal3S(b1-3)GlcNAc
Outline: as §1

[24] = target: Gal3S(b1-3)[Fuc(a1-4)]GlcNAc
Outline: as §1

Gal3S(b1-4)Glc = target: Gal3S(b1-4)Glc
Outline: as §1

Gal3S(b1-4)Glc6S = target: Gal3S(b1-4)Glc6S
Outline: as §1

Gal3S(b1-4)GlcNAc = target: Gal3S(b1-4)GlcNAc
Outline: as §1

Gal3S(b1-4)GlcNAc6S = target: Gal3S(b1-4)GlcNAc6S
Outline: as §1

[25] = target: Gal3S(b1-4)[Fuc(a1-3)]Glc
Outline: as §1

[26] = target: Gal3S(b1-4)[Fuc(a1-3)]Glc6S
Outline: as §1

Gal3S4S(b1-4)GlcNAc = target: Gal3S4S(b1-4)GlcNAc
Outline: as §1

Gal3S6S(b1-4)GlcNAc = target: Gal3S6S(b1-4)GlcNAc
Outline: as §1

Gal3S6S(b1-4)GlcNAc6S = target: Gal3S6S(b1-4)GlcNAc6S
Outline: as §1

Gal4S(b1-4)GlcNAc = target: Gal4S(b1-4)GlcNAc
Outline: as §1

Gal4S6S(b1-4)GlcNAc = target: Gal4S6S(b1-4)GlcNAc
Outline: as §1

B1: SRS6 (Toxoplasma gondii), Q9NH12 (protein)
chain: MARTGSMQQRRGGFQTTARMLMAVCVSGVLLLSSGPSSANKLTEGQQNQNSGPGAATQEGPTIEGAVAKCVLKTTAAENGSSRAKNTTGLTLSKENLVVSLQCSGEKNAIVPKDQKKVCSAAPNAKVADCKGADTDKQVTLKSLLGTSGDIQWEKTIVSTDNKGEVMTLKIKESELPLFDKAFFVGCEEDKAQTRTSQATECKVNVSVKARPSTVGENNVVTCAYGKDSNPRPLEVEMSADNDTLTIDCGTDGSLKPTKYTEEFCVTDNSQLESCTTKKFSEILPTFLPSWWVSDSQNGSAKLTIPESGFPEEQQQFRLGCVPKKTTQSPQANPSVKTEKEEGAQNTDASTSNCSVIVTVKASNFSSLASSIAPTAAVAGGAAALTGFLVGSF
Q: How did the “glycan array binding signal (z-score)” value [1] turn out when B1 was run?
A: Its value is 0.316.

Q: And the “glycan array binding signal (z-score)” value [2]?
A: Its value is 0.291.

Q: What about the “glycan array binding signal (z-score)” value [3] of the same binder?
A: The value was -0.558.

Q: And the “glycan array binding signal (z-score)” value [4]?
A: Its value is 3.04.

Q: What about the “glycan array binding signal (z-score)” value [5] of the same binder?
A: Its value is -0.962.

Q: What about the “glycan array binding signal (z-score)” value [6] of the same binder?
A: Its value is 0.521.

Q: And the “glycan array binding signal (z-score)” value [7]?
A: Its value is -0.626.

Q: What about the “glycan array binding signal (z-score)” value [8] of the same binder?
A: Its value is 1.23.

Q: What about the “glycan array binding signal (z-score)” value [9] of the same binder?
A: The value was -0.104.

Q: What about the “glycan array binding signal (z-score)” value [10] of the same binder?
A: The value was -0.305.

Q: And the “glycan array binding signal (z-score)” value [11]?
A: Its value is -0.116.

Q: What about the “glycan array binding signal (z-score)” value [12] of the same binder?
A: Its value is -0.596.

Q: And the “glycan array binding signal (z-score)” value [13]?
A: The value was 0.892.

Q: What about the “glycan array binding signal (z-score)” value [14] of the same binder?
A: The value was -0.277.

Q: And the “glycan array binding signal (z-score)” value [15]?
A: The value was 2.32.

Q: And the “glycan array binding signal (z-score)” value [16]?
A: The value was -0.096.

Q: What about the “glycan array binding signal (z-score)” value [17] of the same binder?
A: The value was -0.482.

Q: What about the “glycan array binding signal (z-score)” value [18] of the same binder?
A: Its value is -0.75.

Q: What about the “glycan array binding signal (z-score)” value [19] of the same binder?
A: The value was 0.362.

Q: What about the “glycan array binding signal (z-score)” value [20] of the same binder?
A: Its value is 0.169.

Q: And the “glycan array binding signal (z-score)” value [21]?
A: Its value is 0.142.

Q: And the “glycan array binding signal (z-score)” value [22]?
A: Its value is -1.04.

Q: What about the “glycan array binding signal (z-score)” value [23] of the same binder?
A: The value was 0.284.

Q: What about the “glycan array binding signal (z-score)” value (Gal3S(b1-3)GalNAc) of the same binder?
A: Its value is 0.152.

Q: What about the “glycan array binding signal (z-score)” value (Gal3S(b1-3)GlcNAc) of the same binder?
A: The value was 0.114.

Q: And the “glycan array binding signal (z-score)” value [24]?
A: The value was -1.25.

Q: And the “glycan array binding signal (z-score)” value (Gal3S(b1-4)Glc)?
A: The value was -0.403.

Q: What about the “glycan array binding signal (z-score)” value (Gal3S(b1-4)Glc6S) of the same binder?
A: Its value is 0.718.

Q: What about the “glycan array binding signal (z-score)” value (Gal3S(b1-4)GlcNAc) of the same binder?
A: The value was -0.174.

Q: And the “glycan array binding signal (z-score)” value (Gal3S(b1-4)GlcNAc6S)?
A: The value was 0.899.

Q: What about the “glycan array binding signal (z-score)” value [25] of the same binder?
A: The value was 0.713.

Q: What about the “glycan array binding signal (z-score)” value [26] of the same binder?
A: Its value is -0.291.

Q: What about the “glycan array binding signal (z-score)” value (Gal3S4S(b1-4)GlcNAc) of the same binder?
A: The value was -0.161.

Q: And the “glycan array binding signal (z-score)” value (Gal3S6S(b1-4)GlcNAc)?
A: Its value is 0.781.

Q: And the “glycan array binding signal (z-score)” value (Gal3S6S(b1-4)GlcNAc6S)?
A: The value was -1.17.

Q: What about the “glycan array binding signal (z-score)” value (Gal4S(b1-4)GlcNAc) of the same binder?
A: The value was 0.61.

Q: And the “glycan array binding signal (z-score)” value (Gal4S6S(b1-4)GlcNAc)?
A: The value was 0.75.

Reference: the supplement of paper PMC8728848
